# At least one compound was matched to its structure with a doubt left.
# Tests used:
# A549 cells = test: Cell size determination by flow cytometry (forward scatter); assay type: cell-based, human; conditions: siRNA against GOLPH3 or 25 nM rapamycin
# [1] = system: WM239A melanoma xenograft tumors; test: In vivo rapamycin treatment of xenograft tumors; parameters: species or system mouse; conditions: WM239A (4 doses, day 8) and 1205LU (6 doses, day 12) xenografts; 6.0 mg/kg i.p. every other day
# Method: (§1) For in vivo rapamycin studies, melanoma 1205LU and WM239A cells verified to stably-express empty vector or GOLPH3 were subcutaneously implanted into female nude animals (Taconic) at 5.0×10^5 cells/site on both flanks. Tumors were allowed to reach approximately 100 mm^3, after which time animals were randomized into separate cohorts for treatment with vehicle [5% (vol/vol) PEG400.5% (vol/vol) Tween-80) or rapamycin (6 mg/kg; LC Laboratories; 50 mg/ml stock prepared in 100% ETOH and diluted fresh in vehicle solvent for treatment) by intraperitoneal injection every other day. Tumor volumes and body weights were measured upon drug administration. Tumor volume was determined by measuring in two directions with vernier calipers and formulated as tumor volume=[…]. Growth curves were plotted as mean change in tumor volume for each group, where mean change indicates change in tumor volume at a given time point minus tumor volume at time of initial dose administration. Endpoint scatter plots were plotted as proportion of final dose endpoint tumor volume over respective tumor baseline starting volume. Percent tumor growth inhibition was determined as (1-(T/N))×100, where T is the mean change in tumor volume of the treated group and N is the mean change in tumor volume of the control group at the assay endpoint. Two-tailed t-test calculations were performed using Prism 4 (Graphpad).
# [2] = system: 1205LU melanoma xenograft tumors; test: In vivo rapamycin treatment of xenograft tumors; parameters: species or system mouse; conditions: 1205LU-GOLPH3 vs. 1205LU-EV at endpoint (6 doses, day 12); p=0.0268
# Method: as §1
smiles,measurement,setting,value
CO[C@H]1C[C@@H]2CC[C@@H](C)[C@@](O)(O2)C(=O)C(=O)N2CCCC[C@H]2C(=O)O[C@H]([C@H](C)C[C@@H]2CC[C@@H](O)[C@H](OC)C2)CC(=O)[C@H](C)/C=C(\C)[C@@H](O)[C@@H](OC)C(=O)[C@H](C)C[C@H](C)/C=C/C=C/C=C/1C [rapamycin],cell size (forward scatter),A549 cells,cell size reduction
same,sensitivity of GOLPH3-expressing tumors to rapamycin in vivo vs EV tumors,[1],significantly more sensitive
same,"efficacy against xenograft tumors expressing high level of GOLPH3 vs EV, endpoint tumor volumes",[2],significantly more effective

# Reference: patent US20110262464A1, “Compositions, Kits, and Methods for the Diagnosis, Prognosis, and Monitoring of Cancer Using GOLPH3” (DANAFARBER CANCER INSTITUTE, INC., priority 2008, published 2011)
